Test results: publication PMC6449396
These are yes or no findings as the source states them, for the method shown. Binding seen in cells or lysates may run through a third protein. Some results given as binding are weak or reduced against the parent protein; the word gives no strength. For some of these results: Sequences can lack the tags named with a protein.

The chains behind the UniProt entries cited, without tags or fusion partners. Where a name states a change or a piece, a line headed by the entry shows the natural chain unless it says otherwise. A line that says so, or that is headed by a name, gives the form on record, which may keep a tag or linker. Residues count along the entry.
UniProt Q00987: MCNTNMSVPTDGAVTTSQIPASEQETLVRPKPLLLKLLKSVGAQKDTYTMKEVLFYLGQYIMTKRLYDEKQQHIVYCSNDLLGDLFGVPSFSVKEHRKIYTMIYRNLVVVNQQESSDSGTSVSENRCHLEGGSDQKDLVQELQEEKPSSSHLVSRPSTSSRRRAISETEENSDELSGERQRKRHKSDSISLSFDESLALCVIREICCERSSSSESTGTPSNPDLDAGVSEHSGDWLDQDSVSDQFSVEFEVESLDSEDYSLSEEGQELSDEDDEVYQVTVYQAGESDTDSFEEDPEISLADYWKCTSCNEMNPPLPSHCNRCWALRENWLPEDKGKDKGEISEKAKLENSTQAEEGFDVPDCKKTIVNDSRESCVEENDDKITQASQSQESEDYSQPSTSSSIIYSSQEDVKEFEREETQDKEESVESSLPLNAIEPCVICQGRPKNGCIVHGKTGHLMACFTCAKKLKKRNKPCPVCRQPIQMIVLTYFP
HA-tagged PML aa 1–229 (P29590, residues 1-229): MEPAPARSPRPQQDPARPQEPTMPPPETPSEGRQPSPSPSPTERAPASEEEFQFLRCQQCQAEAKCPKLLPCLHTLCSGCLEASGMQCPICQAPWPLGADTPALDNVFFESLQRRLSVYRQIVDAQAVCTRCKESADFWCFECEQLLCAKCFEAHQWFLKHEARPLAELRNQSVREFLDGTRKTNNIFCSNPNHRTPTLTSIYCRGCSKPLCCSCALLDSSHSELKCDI
HA-PML (PML-IV), full length (P29590-5, form named): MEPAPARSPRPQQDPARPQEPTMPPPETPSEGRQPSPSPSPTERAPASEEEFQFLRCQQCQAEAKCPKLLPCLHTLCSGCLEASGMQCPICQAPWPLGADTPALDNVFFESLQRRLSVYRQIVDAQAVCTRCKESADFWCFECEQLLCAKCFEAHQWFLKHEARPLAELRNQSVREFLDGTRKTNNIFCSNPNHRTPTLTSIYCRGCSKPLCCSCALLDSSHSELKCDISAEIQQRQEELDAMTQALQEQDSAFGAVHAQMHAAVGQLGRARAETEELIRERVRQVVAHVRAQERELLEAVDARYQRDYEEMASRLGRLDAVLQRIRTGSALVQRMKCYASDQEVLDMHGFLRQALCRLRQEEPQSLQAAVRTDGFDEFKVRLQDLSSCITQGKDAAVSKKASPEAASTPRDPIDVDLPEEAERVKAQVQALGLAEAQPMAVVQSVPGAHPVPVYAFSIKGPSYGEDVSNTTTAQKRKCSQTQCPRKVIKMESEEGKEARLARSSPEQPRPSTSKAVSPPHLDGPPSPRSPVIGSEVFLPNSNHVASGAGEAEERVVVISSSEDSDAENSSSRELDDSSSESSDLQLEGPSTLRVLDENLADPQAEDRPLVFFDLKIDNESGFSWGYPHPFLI

Legend:
3xFLAG-MDM2 = 3xFLAG-MDM2 (UniProt Q00987); test: co-IP; 293T cells co-transfected with tagged PML, tagged MDM2 and increasing amounts of FL Mad1 or Mad1ΔCTD; extracts 48 h after transfection immunoprecipitated with beads coupled to anti-FLAG antibodies
[1] = biological target: T1, Mad1 aa 180–718, FLAG-tagged fragment (human) (UniProt Q9Y6D9); test: co-IP; anti-FLAG M2 affinity gel, 5 h at 4 °C; lysates of transiently transfected HEK-293T cells in RIPA buffer (50 mM Tris–HCl pH 8.0, 1 mM EDTA, 150 mM NaCl, 20% glycerol, 1% NP-40, 0.5% sodium deoxycholate); FLAG-tagged Mad1 constructs as bait, HA-PML constructs detected
T1 sequence: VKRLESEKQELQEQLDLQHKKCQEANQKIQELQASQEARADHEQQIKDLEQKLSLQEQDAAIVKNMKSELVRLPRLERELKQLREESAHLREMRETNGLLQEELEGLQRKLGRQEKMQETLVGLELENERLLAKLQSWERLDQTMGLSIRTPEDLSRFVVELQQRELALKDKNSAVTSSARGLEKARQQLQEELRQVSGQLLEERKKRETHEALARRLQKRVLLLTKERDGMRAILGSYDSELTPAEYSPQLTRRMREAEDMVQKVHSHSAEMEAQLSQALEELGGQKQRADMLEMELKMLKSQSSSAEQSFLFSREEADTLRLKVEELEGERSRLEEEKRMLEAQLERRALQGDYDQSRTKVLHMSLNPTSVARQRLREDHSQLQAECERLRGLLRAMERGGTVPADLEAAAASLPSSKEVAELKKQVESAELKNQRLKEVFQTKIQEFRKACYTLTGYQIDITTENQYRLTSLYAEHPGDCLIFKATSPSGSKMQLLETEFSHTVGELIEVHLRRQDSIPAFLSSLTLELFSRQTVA

[2] = biological target: T2, Mad1-3xFLAG, full length wild type (human) (UniProt Q9Y6D9); test: as above
T2 sequence: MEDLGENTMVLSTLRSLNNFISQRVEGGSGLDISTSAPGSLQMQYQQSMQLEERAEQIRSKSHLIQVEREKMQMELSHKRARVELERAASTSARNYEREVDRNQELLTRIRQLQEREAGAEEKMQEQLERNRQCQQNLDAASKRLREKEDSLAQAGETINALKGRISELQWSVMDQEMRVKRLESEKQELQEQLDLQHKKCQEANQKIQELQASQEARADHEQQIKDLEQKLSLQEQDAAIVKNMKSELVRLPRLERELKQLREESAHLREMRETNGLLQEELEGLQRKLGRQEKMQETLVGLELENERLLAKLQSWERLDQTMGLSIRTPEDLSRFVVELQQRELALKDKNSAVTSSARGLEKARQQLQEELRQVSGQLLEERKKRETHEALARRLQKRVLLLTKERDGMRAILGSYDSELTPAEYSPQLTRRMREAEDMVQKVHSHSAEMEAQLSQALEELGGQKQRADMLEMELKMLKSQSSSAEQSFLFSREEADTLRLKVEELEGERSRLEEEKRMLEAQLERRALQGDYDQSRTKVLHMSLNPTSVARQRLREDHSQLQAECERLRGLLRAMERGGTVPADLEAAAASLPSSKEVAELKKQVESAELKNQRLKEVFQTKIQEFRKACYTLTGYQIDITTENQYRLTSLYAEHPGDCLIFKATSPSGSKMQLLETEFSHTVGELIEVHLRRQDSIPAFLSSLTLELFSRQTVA

Substance	binding (3xFLAG-MDM2)	binding [1]	binding [2]
HA-PML (PML-IV), full length (from UniProt P29590-5 1-633)	binds	binds	binds
HA-tagged PML aa 1–229 (from UniProt P29590-5 1-229) (domain or fragment)			binds
